Our source for the binding values is patent US20160244802A1, “Protein Demethylases Comprising a JMJC Domain” (The University of North Carolina at Chapel Hill, priority 2005, published 2016).

The chains behind the UniProt entries cited, without tags or fusion partners.
UniProt P10275: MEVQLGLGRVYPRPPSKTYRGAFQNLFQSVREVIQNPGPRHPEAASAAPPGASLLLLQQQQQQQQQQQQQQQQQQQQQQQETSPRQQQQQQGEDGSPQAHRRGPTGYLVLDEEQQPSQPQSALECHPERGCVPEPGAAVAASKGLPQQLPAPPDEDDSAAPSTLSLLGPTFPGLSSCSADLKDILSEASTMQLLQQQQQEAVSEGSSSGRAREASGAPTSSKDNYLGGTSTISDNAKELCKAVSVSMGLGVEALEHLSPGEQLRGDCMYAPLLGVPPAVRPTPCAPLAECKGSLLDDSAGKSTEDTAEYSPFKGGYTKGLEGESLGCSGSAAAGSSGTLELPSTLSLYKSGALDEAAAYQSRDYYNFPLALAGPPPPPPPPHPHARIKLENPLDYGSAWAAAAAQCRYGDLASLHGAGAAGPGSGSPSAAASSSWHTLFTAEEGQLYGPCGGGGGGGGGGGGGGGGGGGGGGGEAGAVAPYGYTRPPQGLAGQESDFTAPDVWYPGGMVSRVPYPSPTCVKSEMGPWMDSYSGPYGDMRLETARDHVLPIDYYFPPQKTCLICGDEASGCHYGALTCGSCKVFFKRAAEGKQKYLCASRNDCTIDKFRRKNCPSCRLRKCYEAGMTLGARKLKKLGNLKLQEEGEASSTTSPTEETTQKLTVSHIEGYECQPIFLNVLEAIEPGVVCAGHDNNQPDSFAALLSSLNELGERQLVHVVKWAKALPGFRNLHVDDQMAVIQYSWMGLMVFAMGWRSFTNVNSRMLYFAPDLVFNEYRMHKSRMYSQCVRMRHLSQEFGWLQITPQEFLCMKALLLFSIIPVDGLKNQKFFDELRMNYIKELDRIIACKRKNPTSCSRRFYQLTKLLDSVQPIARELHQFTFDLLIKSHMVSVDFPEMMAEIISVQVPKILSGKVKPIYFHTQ

These are yes or no findings as the source states them, for the method shown. In cells and extracts the contact can be indirect. Some entries that bind do so weakly or less than the wild type. Sequences can lack the tags named with a protein.

The target of the assay is androgen receptor (AR), in vitro translated, 35S-methionine labeled (UniProt P10275). The assay is described as follows: co-immunoprecipitation with anti-JHDM2A antibody of 35S-labeled in vitro translated AR mixed with recombinant JHDM2A, with or without 100 nM R1881; autoradiography.

B1: recombinant Flag-JHDM2A (JmjC domain-containing histone demethylase 2A) (enzyme, not shown: small tags and cut ends)
chain: MVLTLGESWPVLVGRRFLSLSAADGSDGSHDSWDVERVAEWPWLSGTIRAVSHTDVTKKDLKVCVEFDGESWRKRRWIEVYSLLRRAFLVEHNLVLAERKSPEISERIVQWPAITYKPLLDKAGLGSITSVRFLGDQQRVFLSKDLLKPIQDVNSLRLSLTDNQIVSKEFQALIVKHLDESHLLKGDKNLVGSEVKIYSLDPSTQWFSATVINGNPASKTLQVNCEEIPALKIVDPSLIHVEVVHDNLVTCGNSARIGAVKRKSSENNGTLVSKQAKSCSEASPSMCPVQSVPTTVFKEILLGCTAATPPSKDPRQQSTPQAANSPPNLGAKIPQGCHKQSLPEEISSCLNTKSEALRTKPDVCKAGLLSKSSQIGTGDLKILTEPKGSCTQPKTNTDQENRLESVPQALTGLPKECLPTKASSKAELEIANPPELQKHLEHAPSPSDVSNAPEVKAGVNSDSPNNCSGKKVEPSALACRSQNLKESSVKVDNESCCSRSNNKIQNAPSRKSVLTDPAKLKKLQQSGEAFVQDDSCVNIVAQLPKCRECRLDSLRKDKEQQKDSPVFCRFFHFRRLQFNKHGVLRVEGFLTPNKYDNEAIGLWLPLTKNVVGIDLDTAKYILANIGDHFCQMVISEKEAMSTIEPHRQVAWKRAVKGVREMCDVCDTTIFNLHWVCPRCGFGVCVDCYRMKRKNCQQGAAYKTFSWLKCVKSQIHEPENLMPTQIIPGKALYDVGDIVHSVRAKWGIKANCPCSNRQFKLFSKPASKEDLKQTSLAGEKPTLGAVLQQNPSVLEPAAVGGEAASKPAGSMKPACPASTSPLNWLADLTSGNVNKENKEKQPTMPILKNEIKCLPPLPPLSKSSTVLHTFNSTILTPVSNNNSGFLRNLLNSSTGKTENGLKNTPKILDDIFASLVQNKTTSDLSKRPQGLTIKPSILGFDTPHYWLCDNRLLCLQDPNNKSNWNVFRECWKQGQPVMVSGVHHKLNSELWKPESFRKEFGEQEVDLVNCRTNEIITGATVGDFWDGFEDVPNRLKNEKEPMVLKLKDWPPGEDFRDMMPSRFDDLMANIPLPEYTRRDGKLNLASRLPNYFVRPDLGPKMYNAYGLITPEDRKYGTTNLHLDVSDAANVMVYVGIPKGQCEQEEEVLKTIQDGDSDELTIKRFIEGKEKPGALWHIYAAKDTEKIREFLKKVSEEQGQENPADHDPIHDQSWYLDRSLRKRLHQEYGVQGWAIVQFLGDVVFIPAGAPHQVHNLYSCIKVAEDFVSPEHVKHCFWLTQEFRYLSQTHTNHEDKLQVKNVIYHAVKDAVAMLKASESSFGKP
For B1, the binding result is “binds”.
